Paper PMC12537940
These are yes or no findings as the source states them, for the method shown. In cells and extracts the contact can be indirect. Some entries that bind do so weakly or less than the wild type.

Amino acid sequences for entries named in this document (tags omitted). Residues count along the entry.
UniProt P11688, residues 45-1053: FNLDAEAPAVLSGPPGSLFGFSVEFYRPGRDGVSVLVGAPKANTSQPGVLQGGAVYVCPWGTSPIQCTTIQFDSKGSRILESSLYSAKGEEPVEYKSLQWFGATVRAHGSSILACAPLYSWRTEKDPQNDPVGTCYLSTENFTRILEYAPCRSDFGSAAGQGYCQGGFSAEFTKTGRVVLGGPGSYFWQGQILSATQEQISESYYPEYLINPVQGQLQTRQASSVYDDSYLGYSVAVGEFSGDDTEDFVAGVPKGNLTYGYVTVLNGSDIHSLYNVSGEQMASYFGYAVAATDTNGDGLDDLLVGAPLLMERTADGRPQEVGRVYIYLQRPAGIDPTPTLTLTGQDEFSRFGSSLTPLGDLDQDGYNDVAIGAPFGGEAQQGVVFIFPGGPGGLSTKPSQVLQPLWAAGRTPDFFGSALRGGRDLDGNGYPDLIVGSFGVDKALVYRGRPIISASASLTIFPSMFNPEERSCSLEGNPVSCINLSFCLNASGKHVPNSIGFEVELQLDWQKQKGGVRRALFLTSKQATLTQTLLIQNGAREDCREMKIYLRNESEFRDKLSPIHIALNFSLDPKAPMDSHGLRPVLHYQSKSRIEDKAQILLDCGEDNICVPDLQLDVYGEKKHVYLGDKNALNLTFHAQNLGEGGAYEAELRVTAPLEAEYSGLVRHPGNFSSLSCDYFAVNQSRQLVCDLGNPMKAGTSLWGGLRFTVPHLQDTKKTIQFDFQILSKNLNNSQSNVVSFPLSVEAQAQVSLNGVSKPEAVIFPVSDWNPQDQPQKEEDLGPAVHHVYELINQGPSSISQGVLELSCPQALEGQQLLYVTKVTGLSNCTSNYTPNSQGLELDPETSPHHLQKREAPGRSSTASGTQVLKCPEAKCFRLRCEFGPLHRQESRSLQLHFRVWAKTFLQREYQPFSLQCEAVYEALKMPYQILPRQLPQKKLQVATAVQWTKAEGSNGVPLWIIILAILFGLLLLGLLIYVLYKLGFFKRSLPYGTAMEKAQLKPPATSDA
UniProt Q8K3K8: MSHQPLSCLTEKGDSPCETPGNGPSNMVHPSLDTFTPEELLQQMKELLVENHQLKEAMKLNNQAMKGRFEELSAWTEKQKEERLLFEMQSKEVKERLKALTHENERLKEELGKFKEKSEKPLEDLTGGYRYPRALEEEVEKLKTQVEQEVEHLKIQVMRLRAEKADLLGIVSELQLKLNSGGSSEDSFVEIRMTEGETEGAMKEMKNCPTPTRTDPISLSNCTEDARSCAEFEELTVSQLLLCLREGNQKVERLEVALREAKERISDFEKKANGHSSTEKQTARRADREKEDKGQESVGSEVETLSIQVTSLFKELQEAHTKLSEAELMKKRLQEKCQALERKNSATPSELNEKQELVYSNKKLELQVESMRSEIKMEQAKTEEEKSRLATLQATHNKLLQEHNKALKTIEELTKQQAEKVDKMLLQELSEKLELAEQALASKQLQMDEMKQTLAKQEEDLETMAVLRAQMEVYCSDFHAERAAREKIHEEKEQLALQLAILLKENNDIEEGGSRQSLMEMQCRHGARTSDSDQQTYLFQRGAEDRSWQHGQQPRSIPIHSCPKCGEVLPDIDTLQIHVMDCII

Key:
mesothelin (Msln) = target: T1, mesothelin (Msln) (UniProt Q61468); assay: co-IP; anti-MSLN antibody coupled to Dynabeads protein G; with or without etoposide and TAK-243 (Supplementary Fig. 15l); cells not given
T1 sequence: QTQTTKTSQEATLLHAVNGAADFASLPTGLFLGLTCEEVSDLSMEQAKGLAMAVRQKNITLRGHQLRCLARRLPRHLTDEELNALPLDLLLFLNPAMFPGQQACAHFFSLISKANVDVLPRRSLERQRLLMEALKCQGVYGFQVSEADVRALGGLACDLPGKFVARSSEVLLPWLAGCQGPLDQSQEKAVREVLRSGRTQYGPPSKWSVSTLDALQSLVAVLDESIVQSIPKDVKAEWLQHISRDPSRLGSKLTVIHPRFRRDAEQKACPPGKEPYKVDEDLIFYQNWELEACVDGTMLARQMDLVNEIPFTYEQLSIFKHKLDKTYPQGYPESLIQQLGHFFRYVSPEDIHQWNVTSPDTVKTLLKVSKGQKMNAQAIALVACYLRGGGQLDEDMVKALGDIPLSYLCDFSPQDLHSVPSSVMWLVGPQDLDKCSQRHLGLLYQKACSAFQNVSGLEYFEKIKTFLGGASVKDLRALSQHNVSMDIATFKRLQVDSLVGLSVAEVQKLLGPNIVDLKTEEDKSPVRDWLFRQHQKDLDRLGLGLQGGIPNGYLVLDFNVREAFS

[1] = target: integrin α5 (mouse (endogenous in Atg5KO MEFs)) (UniProt P11688); assay: co-IP; anti-integrin α5 antibody coupled to Dynabeads protein G; lysate of Atg5KO MEFs, basal or treated with etoposide, with or without TAK-243 (100 nM) for 12 hr before collection

binding (mesothelin (Msln)): binds
binding [1]: binds
Substance: optineurin (Optn) (from UniProt Q8K3K8 1-584)
